Results are given in words; binding and its absence hold for the method and conditions named. Binding seen in cells or lysates may run through a third protein. These calls come from enrichment with a bait or labelling near it, and not all partners need be listed. For part of these data: A no says only that the protein was not detected with the bait.
How the values were obtained:
[1] = biological target: flag-tagged wild-type human TAZ (pMSCV-3xFlag TAZ-IRES-eGFP) (human) (UniProt Q9GZV5); assay: affinity purification with mass spectrometry; flag-tagged human TAZ or YAP expressed by retrovirus in C2C12 mature myotubes (differentiated for 72 hours); lysis in 150 mM NaCl, 20 mM Tris-HCl pH 7.5, 1% Triton X100; anti-Flag M2 agarose beads, 4°C; cut-off ratio ≥2 against empty vector and p < .05
[2] = biological target: flag-tagged wild-type human YAP (human) (UniProt P46937); assay: as above
[3] = biological target: flag-tagged wild-type human TAZ (pMSCV-3xFlag TAZ-IRES-eGFP) (human) (UniProt Q9GZV5); assay: affinity purification with mass spectrometry; flag-tagged human TAZ or YAP expressed by retrovirus in proliferating C2C12 myoblasts (50% cell density); lysis in 150 mM NaCl, 20 mM Tris-HCl pH 7.5, 1% Triton X100; anti-Flag M2 agarose beads, 4°C; cut-off ratio ≥2 against empty vector and p < .05
[4] = biological target: flag-tagged wild-type human YAP (human) (UniProt P46937); assay: as above
[5] = biological target: flag-tagged wild-type human TAZ (pMSCV-3xFlag TAZ-IRES-eGFP) (human) (UniProt Q9GZV5); assay: affinity purification with mass spectrometry; same Flag immunoprecipitation and mass spectrometry from C2C12 myoblasts/myotubes; the text does not tell in which of the two states the hit was found
[6] = biological target: flag-tagged wild-type human YAP (human) (UniProt P46937); assay: as above

Protein sequences, listed by entry. Tags and fused reporters are not part of them.
UniProt Q9GZV5: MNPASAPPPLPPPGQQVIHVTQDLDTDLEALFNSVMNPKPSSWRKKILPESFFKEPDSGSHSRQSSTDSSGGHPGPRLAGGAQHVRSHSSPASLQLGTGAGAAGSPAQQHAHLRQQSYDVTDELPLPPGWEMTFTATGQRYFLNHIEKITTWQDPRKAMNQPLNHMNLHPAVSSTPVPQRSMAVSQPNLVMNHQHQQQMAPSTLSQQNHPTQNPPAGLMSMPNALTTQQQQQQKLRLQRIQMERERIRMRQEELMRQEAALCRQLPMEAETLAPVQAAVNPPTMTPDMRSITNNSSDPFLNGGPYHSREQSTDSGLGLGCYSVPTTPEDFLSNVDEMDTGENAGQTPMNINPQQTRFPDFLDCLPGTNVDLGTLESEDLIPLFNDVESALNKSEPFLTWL
UniProt P46937: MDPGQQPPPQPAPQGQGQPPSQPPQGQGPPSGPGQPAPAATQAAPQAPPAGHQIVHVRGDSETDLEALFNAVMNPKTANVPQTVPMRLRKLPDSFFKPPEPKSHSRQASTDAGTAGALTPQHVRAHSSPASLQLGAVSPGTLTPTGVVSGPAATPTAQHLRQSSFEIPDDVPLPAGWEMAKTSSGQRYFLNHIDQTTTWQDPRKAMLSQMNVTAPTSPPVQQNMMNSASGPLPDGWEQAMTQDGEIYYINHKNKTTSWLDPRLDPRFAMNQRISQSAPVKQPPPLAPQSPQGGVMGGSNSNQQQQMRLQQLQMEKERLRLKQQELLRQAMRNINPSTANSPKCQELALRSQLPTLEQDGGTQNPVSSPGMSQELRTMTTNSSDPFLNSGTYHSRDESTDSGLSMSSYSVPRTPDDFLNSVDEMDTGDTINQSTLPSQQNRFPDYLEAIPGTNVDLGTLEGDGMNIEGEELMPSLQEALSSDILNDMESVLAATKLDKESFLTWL
UniProt Q9JLV1: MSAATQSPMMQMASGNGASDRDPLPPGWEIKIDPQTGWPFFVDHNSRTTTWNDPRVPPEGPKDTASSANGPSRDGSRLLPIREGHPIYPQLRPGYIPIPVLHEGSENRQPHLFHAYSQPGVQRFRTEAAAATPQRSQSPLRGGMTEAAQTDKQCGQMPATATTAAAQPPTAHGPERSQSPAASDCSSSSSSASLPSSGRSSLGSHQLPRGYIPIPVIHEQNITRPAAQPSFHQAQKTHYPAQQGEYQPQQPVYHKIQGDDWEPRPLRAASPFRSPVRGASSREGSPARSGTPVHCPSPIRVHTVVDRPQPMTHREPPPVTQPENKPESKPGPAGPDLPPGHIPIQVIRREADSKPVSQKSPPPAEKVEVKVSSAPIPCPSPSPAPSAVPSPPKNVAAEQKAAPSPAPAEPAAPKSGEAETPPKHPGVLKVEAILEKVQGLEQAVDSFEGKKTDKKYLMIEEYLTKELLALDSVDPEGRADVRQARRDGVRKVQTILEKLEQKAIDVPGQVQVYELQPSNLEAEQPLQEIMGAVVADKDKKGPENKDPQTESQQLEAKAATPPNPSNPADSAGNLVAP
UniProt P10085: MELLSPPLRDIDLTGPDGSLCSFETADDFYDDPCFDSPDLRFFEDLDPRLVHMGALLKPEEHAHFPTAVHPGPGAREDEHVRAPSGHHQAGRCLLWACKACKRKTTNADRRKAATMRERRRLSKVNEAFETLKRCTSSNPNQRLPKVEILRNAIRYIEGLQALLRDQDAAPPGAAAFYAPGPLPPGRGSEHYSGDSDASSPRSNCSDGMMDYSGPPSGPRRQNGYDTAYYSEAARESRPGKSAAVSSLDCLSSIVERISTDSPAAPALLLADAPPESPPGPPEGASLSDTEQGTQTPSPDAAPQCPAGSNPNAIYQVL
UniProt Q03347: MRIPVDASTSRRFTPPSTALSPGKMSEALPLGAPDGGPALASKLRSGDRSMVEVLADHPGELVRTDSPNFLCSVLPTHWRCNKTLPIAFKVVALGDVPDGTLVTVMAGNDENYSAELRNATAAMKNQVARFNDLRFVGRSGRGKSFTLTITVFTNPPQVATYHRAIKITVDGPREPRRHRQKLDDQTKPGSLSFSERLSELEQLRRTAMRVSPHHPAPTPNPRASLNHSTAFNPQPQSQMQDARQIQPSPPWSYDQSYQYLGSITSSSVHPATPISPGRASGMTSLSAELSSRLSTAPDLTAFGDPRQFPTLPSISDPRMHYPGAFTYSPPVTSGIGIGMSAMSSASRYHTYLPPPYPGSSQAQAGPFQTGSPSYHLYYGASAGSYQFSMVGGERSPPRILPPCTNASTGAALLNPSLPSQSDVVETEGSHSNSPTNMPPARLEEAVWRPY
UniProt P30051: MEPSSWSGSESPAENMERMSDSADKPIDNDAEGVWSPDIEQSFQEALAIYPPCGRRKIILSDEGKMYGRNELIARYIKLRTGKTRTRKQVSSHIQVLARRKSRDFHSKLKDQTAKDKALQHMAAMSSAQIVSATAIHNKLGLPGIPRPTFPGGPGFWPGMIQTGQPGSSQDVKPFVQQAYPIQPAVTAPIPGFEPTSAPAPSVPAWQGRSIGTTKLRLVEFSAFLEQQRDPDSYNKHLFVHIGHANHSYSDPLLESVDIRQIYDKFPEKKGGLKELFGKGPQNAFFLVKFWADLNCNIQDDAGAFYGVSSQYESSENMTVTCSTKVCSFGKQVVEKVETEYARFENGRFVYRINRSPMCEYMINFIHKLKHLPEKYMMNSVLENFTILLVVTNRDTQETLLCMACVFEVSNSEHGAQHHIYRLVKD
UniProt P62259: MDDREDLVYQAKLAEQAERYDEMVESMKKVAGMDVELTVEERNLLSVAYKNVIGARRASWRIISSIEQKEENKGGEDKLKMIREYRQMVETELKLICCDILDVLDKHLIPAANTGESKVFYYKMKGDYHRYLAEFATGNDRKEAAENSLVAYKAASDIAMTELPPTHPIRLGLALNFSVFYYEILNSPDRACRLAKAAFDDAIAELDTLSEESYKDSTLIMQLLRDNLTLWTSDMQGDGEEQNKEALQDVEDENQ
UniProt P63101: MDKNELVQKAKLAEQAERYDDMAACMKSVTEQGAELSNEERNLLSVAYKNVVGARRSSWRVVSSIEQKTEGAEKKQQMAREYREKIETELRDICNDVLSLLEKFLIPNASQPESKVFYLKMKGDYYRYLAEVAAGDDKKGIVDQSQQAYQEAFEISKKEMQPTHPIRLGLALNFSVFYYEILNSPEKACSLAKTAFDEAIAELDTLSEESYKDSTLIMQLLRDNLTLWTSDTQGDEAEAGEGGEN

Molecule	binding [1]	binding [5]	also measured
Bag3 (from UniProt Q9JLV1 1-577)	binds	–	binding [2]: binds
MyoD (from UniProt P10085 1-318)	no binding	–	binding [2]: no binding; binding [3]: no binding; binding [4]: no binding
Runx1 (from UniProt Q03347 1-451)	–	–	binding [3]: binds
Tead1 (from UniProt P30051 1-426)	–	binds	–
Amotl1 (protein, UniProt Q9D4H4 1-968) MRRAKSRRGPCEPVLRAPPPICYSPSSPVQILEDPAYFYPDLQLYSGRHEASTLTVEASGGLRGKSVEDPLSSFHSPNFLRTPEVEMRGSEDVASGRVLQRLIQEQLRYGTPTENMNLLAIQHQATGSAGPAHATTNFSSTETLTQEDPQMVYQSARQEPQGQEHQGDNTVMEKQVRSTQPQQNNEELPTYEEAKAQSQFFRGQQQQQQQQQQQQQQQQQQGQGPLSHTYYMAGGTSQKSRTEGRPTVNRANSGQAHKDEALKELKQGHVRSLSERIMQLSLERNGAKQHLPSSGNGKSFKAGGEPSPAQPVCKALDPRGPPPEYPFKTKPMKSPVSKNQDHGLYYNDQHPGVLHEMVKPYPAPQPARTEVAVLRYQPPPEYGVTSRPCQLPFPSTVQQHSPMSSQTSSIGGTLHSVSLPLPLPISLAASQPLPASPNQQLGPDAFAIVERAQQMVEILTEENRVLHQELQGCYDNADKLHKFEKELQSISEAYESLVKSTTKRESLDKAMRTKLEGEIRRLHDFNRDLRDRLETANRQLSSREYDGHEDKAAESHYVSQNKEFLKEKEKLEMELAAVRTASEDHRRHIEILDQALSNAQARVIKLEEELREKQAYVEKVEKLQQALTQLQSACEKRGQMERRLRTWLERELDALRTQQKHGTGPPVSLPECNAPALMELVREKEERILALEADMTKWEQKYLEESTIRHFAMSAAAAATAERDTTISNHSRNGSYGESSLEAHIWPEEEEVVQANRRCQDMEYTIKNLHAKIIEKDAMIKVLQQRSRKDAGKTDSASLRPARSVPSIAAATGTHSRQTSLTSSQLTEEKKEEKTTWKGSIGFLLGKEHQGQASAPLLPTTPASALSLPASTTSASSTHAKTGSKDSSTQTDKSTELFWPSMASLPSRGRLSTAPSNSPILKHPAAKGAVEKQENSPGHGKASEHRGRVSNLLHKPEFPDGEMMEVLI	–	binds	binding [6]: binds
Unc45a (protein, UniProt Q99KD5 1-944) MTVSGPETPEPRPSDPGASSAEQLRKEGNELFKCGDYEGALTAYTQALSLGATPQDQAILHRNRAACHLKLEDYSKAESEASKAIEKDGGDVKALYRRSQALEKLGRLDQAVLDLKRCVSLEPKNKVFQESLRNIGGQIQEKVRYMSSTDAKVEQMFQILLDPKEKGTEKKQKASQNLVVLAREDAGAEKIFRSNGVQLLQRLLDTEETDLMLAALRTLVGICSEHQSRTVATLSVLGTRRVVSILGVENQAVSLAACHLLQVIFDALKEGVKKGFRGKEGAIIVDPARELKVLINSLLELLTEVGVSGQGRDNALTLLIKMVPRKSPKDPNNSLTLWVIDQGLKKILEVGGSLQDAAGELTVTANSRMSASILLSKLFDDLKCDAERENFHRLCENYIRNWFEGHGLAGKLRAIQTVSCLLQGPCDAGNRALELSGVMESVIALCASEREEEQLVAVEALIHAAGKAKRASFITANGVSLLKDLYKGSERDSIRIRALVGLCKLGSAGGTDFSMKQFAEGSTLKLAKQCRKWLCNDQIDAGTRRWAVEGLAYLTFDADVKEEFVEDEAALKALFQLSRSEERSVLFAVGSALVNCTNSYDYEEPDPKMVELAKYAKQHVPEQHPKDKPSFVRARVKKLLAAGVVSAMTCMVKTESPVLTNSCRELLSRVFLALVEEVEDRGTVVAQGGGKALLPLALEGTDVGQTKAAQALAKLTITSNPEMTFPGERIYEVVRPLVSLLHLSCSGLQNFEALMALTNLAGISERLRQKILKEKAVPMIEGYMFEEHEMIRRAATECMCNLAMSKEVQDLFEAQGNDRLKLLVLYSGEDDELLRRAAAGGLAMLTSMRPALCSRIPQVTTHWLEILQALLLSPNQELQHRGTVVVLNMMQSSKEIAGTLMESEVLEILSVLAKGEESPVTRAAAACLEKAVEYRLIQPNQDGE	binds	–	–
Dvl2 (protein, UniProt Q60838 1-736) MAGSSAGGGGVGETKVIYHLDEEETPYLVKIPVPAERITLGDFKSVLQRPAGAKYFFKSMDQDFGVVKEEISDDNARLPCFNGRVVSWLVSSDTPQPEVAPPAHESRTELVPPPPPLPPLPPERTSGIGDSRPPSFHPNVSSSHENLEPETETESVVSLRRDRPRRRDSSEHGAGGHRPGGPSRLERHLAGYESSSTLMTSELESTSLGDSDEDDTMSRFSSSTEQSSASRLLKRHRRRRKQRPPRMERTSSFSSVTDSTMSLNIITVTLNMEKYNFLGISIVGQSNERGDGGIYIGSIMKGGAVAADGRIEPGDMLLQVNDMNFENMSNDDAVRVLRDIVHKPGPIVLTVAKCWDPSPQAYFTLPRNEPIQPIDPAAWVSHSAALTGAFPAYPGSSSMSTITSGSSLPDGCEGRGLSVHMDMASVTKAMAAPESGLEVRDRMWLKITIPNAFLGSDVVDWLYHHVEGFPERREARKYASGLLKAGLIRHTVNKITFSEQCYYVFGDLSGGCESYLVNLSLNDNDGSSGASDQDTLAPLPGATPWPLLPTFSYQYPAPHPYSPQPPPYHELSSYTYGGGSASSQHSEGSRSSGSTRSDGGAGRTGRPEERAPESKSGSGSESELSSRGGSLRRGGEPGGTGDGGPPPSRGSTGAPPNLRALPGLHPYGAPSGMALPYNPMMVVMMPPPPPPVSTAVQPPGAPPVRDLGSVPPELTASRQSFHMAMGNPSEFFVDVM	no binding	–	binding [2]: binds
Dvl3 (protein, UniProt Q61062 1-716) MGETKIIYHLDGQETPYLVKLPLPAERVTLADFKGVLQRPSYKFFFKSMDDDFGVVKEEISDDNAKLPCFNGRVVSWLVSAEGSHPEPAPFCADNPSELPPSMERTGGIGDSRPPSFHPHASGGSQENLDNDTETDSLVSAQRERPRRRDGPEHAARLNGTTKGERRREPGGYDSSSTLMSSELETTSFFDSDEDDSTSRFSSSTEQSSASRLMRRHKRRRRKQKVSRIERSSSFSSITDSTMSLNIITVTLNMEKYNFLGISIVGQSNERGDGGIYIGSIMKGGAVAADGRIEPGDMLLQVNEINFENMSNDDAVRVLREIVHKPGPITLTVAKCWDPSPRGCFTLPRSEPIRPIDPAAWVSHTAAMTGTFPAYGMSPSLSTITSTSSSITSSIPDTERLDDFHLSIHSDMAAIVKAMASPESGLEVRDRMWLKITIPNAFIGSDVVDWLYHNVEGFTDRREARKYASNLLKAGFIRHTVNKITFSEQCYYIFGDLCGNMANLSLHDHDGSSGASDQDTLAPLPHPGAAPWPMAFPYQYPPPPHPYNPHPGFPELGYSYGGGSASSQHSEGSRSSGSNRSGSDRRKEKDPKAGDSKSGGSGSESDHTTRSSLRGPRERAPSERSGPAASEHSHRSHHSLTSSLRSHHTHPSYGPPGVPPLYGPPMLMMTPPPAAMGPPGAPPGRDLASVPPELTASRQSFRMAMGNPSEFFVDVM	no binding	–	–

More lines, main results first:

binding [1]	binding [5]	Molecule	also measured
–	binds	Ywhae (from UniProt P62259 1-255)	–
–	binds	Ywhaz (from UniProt P63101 1-245)	–
–	binds	Ywhag (protein, UniProt P61982 1-247) MVDREQLVQKARLAEQAERYDDMAAAMKNVTELNEPLSNEERNLLSVAYKNVVGARRSSWRVISSIEQKTSADGNEKKIEMVRAYREKIEKELEAVCQDVLSLLDNYLIKNCSETQYESKVFYLKMKGDYYRYLAEVATGEKRATVVESSEKAYSEAHEISKEHMQPTHPIRLGLALNYSVFYYEIQNAPEQACHLAKTAFDDAIAELDTLNEDSYKDSTLIMQLLRDNLTLWTSDQQDDDGGEGNN	binding [6]: binds
